The values that follow come from article PMC5094957.

The chains behind the UniProt entries cited, without tags or fusion partners.
UniProt Q969H0: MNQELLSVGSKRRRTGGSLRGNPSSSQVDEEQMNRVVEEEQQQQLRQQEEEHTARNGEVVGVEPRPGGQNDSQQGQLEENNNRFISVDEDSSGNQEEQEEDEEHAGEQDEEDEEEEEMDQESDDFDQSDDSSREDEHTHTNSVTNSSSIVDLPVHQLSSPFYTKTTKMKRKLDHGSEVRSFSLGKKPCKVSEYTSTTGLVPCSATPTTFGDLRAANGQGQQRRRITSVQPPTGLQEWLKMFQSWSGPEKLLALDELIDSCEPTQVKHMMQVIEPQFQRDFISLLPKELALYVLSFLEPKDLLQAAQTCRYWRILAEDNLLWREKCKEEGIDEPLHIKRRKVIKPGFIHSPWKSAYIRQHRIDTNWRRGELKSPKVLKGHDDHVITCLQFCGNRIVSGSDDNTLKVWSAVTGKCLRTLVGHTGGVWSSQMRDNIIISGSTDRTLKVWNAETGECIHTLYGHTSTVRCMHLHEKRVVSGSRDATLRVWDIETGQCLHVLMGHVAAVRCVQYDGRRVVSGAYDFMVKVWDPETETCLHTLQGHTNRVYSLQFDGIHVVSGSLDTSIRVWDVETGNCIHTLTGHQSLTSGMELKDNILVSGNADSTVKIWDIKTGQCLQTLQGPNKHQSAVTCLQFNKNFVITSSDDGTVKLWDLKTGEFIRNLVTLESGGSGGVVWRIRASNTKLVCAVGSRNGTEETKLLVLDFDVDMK

Positions count from the first letter of the chain named. Results are given in words; binding and its absence hold for the method and conditions named. Binding seen in cells or lysates may run through a third protein. Some results given as binding are weak or reduced against the parent protein; the word gives no strength. Where a sequence is shown, tags or fusion partners need not be part of it.

Test [1] concerns the target T1, FAAP20 (Fanconi Anemia-Associated Protein, 20 kDa), wild-type, tagged, expressed in 293T cells (UniProt Q6NZ36).
T1 sequence: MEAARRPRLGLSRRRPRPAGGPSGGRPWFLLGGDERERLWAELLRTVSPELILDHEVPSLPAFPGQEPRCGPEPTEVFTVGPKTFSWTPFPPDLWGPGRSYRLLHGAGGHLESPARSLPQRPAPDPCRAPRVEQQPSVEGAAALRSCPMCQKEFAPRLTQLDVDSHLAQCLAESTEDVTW
In words: co-IP; 293T cells co-expressing HA-FBW7 and tagged FAAP20 (WT or SA), 10 uM MG132 for 6 h, lysed in NETN150 (1 % NP40, 150 mM NaCl, 0.1 mM EDTA, 50 mM Tris pH 7.5) with phosphatase and protease inhibitors; anti-Flag M2 affinity gel 4 h, five washes; Western blot.

In test [2] the target is T2, FAAP20 S113A/S117A (SA) mutant, tagged, expressed in 293T cells (UniProt Q6NZ36).
T2 sequence: T1 sequence with S113A, S117A
Described as above.

Test [3] has as its target T3, FAAP20, Flag-tagged, in vitro transcribed and translated (UniProt Q6NZ36).
T3 sequence: T1 sequence
Put plainly: co-IP; Flag-FAAP20 and HA-FBW7 in vitro transcribed and translated (250 ng plasmids, TnT T7 Quick Coupled Master Mix, 30 C, 70 min), then co-immunoprecipitation.

Regarding “FBW7 (F-box and WD repeat domain-containing 7), HA-tagged, expressed in 293T cells (from UniProt Q969H0 1-707)”, the binding result in test [1] is “binds”; in test [2], “no binding”.
For the substance “FBW7, HA-tagged, in vitro transcribed and translated (from UniProt Q969H0 1-707)”, the binding result in test [3] is reported as “binds”.
